{
  "sequences": {"note": "Sequences of proteins named here, by UniProt entry; tags and fusion partners are left off. A change or cut given only in a name is not applied to a line headed by its entry.", "UniProt Q6WKZ4": "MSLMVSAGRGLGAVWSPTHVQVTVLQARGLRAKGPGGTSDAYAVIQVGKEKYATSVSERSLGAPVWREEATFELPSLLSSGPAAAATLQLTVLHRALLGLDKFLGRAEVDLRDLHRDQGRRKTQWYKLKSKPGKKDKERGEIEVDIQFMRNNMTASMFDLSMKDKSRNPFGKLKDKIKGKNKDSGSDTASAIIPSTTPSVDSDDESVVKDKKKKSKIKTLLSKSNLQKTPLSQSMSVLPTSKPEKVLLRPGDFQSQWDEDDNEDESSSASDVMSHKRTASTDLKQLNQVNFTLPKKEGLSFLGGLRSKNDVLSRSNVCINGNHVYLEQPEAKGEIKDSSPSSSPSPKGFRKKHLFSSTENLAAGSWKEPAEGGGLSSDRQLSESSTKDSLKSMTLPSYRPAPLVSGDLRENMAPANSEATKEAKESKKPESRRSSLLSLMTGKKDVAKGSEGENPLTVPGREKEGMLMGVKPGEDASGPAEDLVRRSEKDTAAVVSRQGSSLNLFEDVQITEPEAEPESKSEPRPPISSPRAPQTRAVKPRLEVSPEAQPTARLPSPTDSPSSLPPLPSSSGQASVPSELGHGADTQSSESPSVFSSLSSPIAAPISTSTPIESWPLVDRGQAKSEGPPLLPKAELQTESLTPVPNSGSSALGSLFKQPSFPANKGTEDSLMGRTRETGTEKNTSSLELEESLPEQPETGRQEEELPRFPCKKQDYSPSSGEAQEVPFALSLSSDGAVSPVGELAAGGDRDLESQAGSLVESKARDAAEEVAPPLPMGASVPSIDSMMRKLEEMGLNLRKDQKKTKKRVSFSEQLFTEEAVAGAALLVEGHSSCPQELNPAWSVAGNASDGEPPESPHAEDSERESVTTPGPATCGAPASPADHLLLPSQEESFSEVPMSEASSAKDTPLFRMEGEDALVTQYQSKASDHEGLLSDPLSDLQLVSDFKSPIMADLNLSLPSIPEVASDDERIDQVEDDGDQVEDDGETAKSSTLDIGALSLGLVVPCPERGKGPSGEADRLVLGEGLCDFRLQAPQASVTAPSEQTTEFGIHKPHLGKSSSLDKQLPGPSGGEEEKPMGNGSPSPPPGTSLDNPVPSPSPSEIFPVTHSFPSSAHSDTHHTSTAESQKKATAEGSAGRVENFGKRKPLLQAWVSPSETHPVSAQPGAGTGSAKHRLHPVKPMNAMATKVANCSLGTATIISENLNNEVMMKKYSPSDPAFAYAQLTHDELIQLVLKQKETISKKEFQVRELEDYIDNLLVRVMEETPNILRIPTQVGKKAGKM", "UniProt P08183": "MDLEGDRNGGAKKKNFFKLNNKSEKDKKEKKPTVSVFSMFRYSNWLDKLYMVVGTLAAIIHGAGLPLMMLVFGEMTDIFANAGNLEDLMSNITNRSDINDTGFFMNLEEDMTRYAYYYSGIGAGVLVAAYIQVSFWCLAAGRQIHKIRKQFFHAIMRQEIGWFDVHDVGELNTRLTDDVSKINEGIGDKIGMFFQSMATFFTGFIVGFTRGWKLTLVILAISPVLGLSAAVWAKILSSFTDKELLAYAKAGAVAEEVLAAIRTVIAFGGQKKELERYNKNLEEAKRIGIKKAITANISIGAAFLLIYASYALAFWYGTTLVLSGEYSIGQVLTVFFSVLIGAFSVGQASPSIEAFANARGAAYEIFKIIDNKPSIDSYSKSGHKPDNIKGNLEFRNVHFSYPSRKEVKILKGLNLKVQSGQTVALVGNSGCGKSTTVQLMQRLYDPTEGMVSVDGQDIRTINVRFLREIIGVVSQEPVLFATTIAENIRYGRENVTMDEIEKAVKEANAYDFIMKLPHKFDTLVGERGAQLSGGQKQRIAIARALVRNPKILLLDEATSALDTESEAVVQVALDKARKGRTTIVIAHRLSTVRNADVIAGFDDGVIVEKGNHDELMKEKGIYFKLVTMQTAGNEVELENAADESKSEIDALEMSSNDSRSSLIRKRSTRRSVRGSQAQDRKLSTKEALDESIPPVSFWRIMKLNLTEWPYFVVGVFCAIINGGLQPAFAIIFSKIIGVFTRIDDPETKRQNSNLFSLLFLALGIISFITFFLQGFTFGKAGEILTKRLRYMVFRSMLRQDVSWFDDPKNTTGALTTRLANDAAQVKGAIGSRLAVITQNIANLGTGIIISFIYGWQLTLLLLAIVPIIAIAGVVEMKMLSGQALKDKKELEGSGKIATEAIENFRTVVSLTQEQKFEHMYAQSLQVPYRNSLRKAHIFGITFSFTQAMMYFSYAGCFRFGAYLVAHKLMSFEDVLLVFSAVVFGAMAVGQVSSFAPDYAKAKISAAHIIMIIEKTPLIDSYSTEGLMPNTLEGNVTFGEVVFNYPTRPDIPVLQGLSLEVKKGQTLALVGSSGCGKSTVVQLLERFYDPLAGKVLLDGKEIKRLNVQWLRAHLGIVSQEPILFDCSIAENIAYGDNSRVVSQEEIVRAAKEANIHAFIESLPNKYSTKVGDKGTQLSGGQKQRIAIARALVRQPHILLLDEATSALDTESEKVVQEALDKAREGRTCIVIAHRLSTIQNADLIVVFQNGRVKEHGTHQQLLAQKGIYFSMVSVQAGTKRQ"},
  "source": "paper PMC7904762",
  "biological_target": "RCP (bait of the mass spectrometry proteomic screen in H1299 cells) (UniProt Q6WKZ4)",
  "assay": "affinity purification with mass spectrometry; mass spectrometry proteomic screen for RCP interaction partners in H1299 cells (mutant p53 R273H and empty vector); performed previously (ref. 21)",
  "note": "These are yes or no findings as the source states them, for the method shown. In cells and extracts the contact can be indirect. A yes stands for co-enrichment or nearness to the bait. Other partners may have been found.",
  "data": [
    {"substance": "P-glycoprotein (from UniProt P08183 1-1280)", "values": [
      {"measurement": "binding", "result": "binds"}
    ]}
  ]
}
